PubChem BioAssay AID504808 | Drosophila RNAi Screening Center | 2011

- Purpose: 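Fly genes required to hold E2F transcription in check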 (primary screen)
- Cell system: Drosophila S2 cells
- Reagents: long dsRNA against Drosophila genes
- Detection: 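Firefly luciferase driven by E2F sites, normalised to Renilla luciferase on the same minimal promoter, measured by plate reader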
- Scale: E2F firefly: higher = more E2F reporter activity; Renilla normaliser: higher = more normaliser reporter signal
- Call rule: 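Called active if the normalised E2F reporter went up by over 50%; the cutoff is arbitrary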
The deposit covers about 21,000 reagents; shown is an unselected part of those with a known target gene and a result. Of all reagents, 18 (0.084%) got an active call. 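Raw counts without plate normalisation, one of two replicates; the ratio scores behind the calls were not deposited.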 A number with no mark means an inactive call. A plus sign joins genes that one reagent is predicted to hit. The record does not give: the amount of reagent, the time to read-out.

| target | dsRNA | E2F firefly, rep 1 | Renilla normaliser, rep 1 |
| --- | --- | --- | --- |
| CG17122 | DRSC10245 | 1.44e5 | 6485 |
| mas (masquerade) | DRSC08720 | 54187 | 3055 |
| CG31391 | DRSC16047 | 1.25e5 | 5437 |
| Grx5 (Glutaredoxin 5) | DRSC19593 | 2.11e5 | 10064 |
| PIG-T (Phosphatidylinositol glycan anchor biosynthesis class T) | DRSC17774 | 49822 | 4247 |
| CG31683 + CG18858 | DRSC02703 | 1.06e5 | 4150 |
| Zip42C.2 (Zinc/iron regulated transporter-related protein 42C.2) | DRSC05004 | 1.15e5 | 4216 |
| ppk27 (pickpocket 27) | DRSC08168 | 98935 | 4478 |
| mael (maelstrom) | DRSC11894 | 70168 | 3482 |
| Gmppb (GDP-mannose pyrophosphorylase B) | DRSC12169 | 82321 | 3249 |
| Hex-C (Hexokinase C) | DRSC07079 | 1.00e5 | 3940 |
| CG14411 | DRSC19597 | 1.58e5 | 6410 |
| CG18635 | DRSC06780 | 51344 | 3463 |
| CG3955 | DRSC06859 | 108 | 32 |
| RpL29 (Ribosomal protein L29) | DRSC04650 | 1.09e5 | 4455 |
| mthl13 (methuselah-like 13) | DRSC05238 | 1.29e5 | 5692 |
| east (enhanced adult sensory threshold) | DRSC18770 | 2.20e5 (active) | 6697 |
| Cdk12 (Cyclin-dependent kinase 12) | DRSC11836 | 70225 | 3526 |
| clos (closca) | DRSC06240 | 1.51e5 | 4787 |
| clos (closca) | DRSC06241 | 1.43e5 | 5253 |
| clos (closca) | DRSC06778 | 1.40e5 | 4989 |
| inaF-A | DRSC19660 | 56652 | 4431 |
| CheA84a (Chemosensory protein A 84a) | DRSC12669 | 76948 | 3590 |
| E2f2 (E2F transcription factor 2) | DRSC03320 | 71310 | 3540 |
| Pfdn6 (Prefoldin 6) | DRSC10915 | 1.20e5 | 7377 |
| CG15864 | DRSC15122 | 1.36e5 | 6318 |
| Gr8a (Gustatory receptor 8a) | DRSC18043 | 1.30e5 | 5549 |
| CG43693 | DRSC09086 | 1.43e5 | 4131 |
| CG43693 | DRSC10625 | 74428 | 3463 |
| to (takeout) | DRSC17086 | 96305 | 5172 |
| CG33642 | DRSC01325 | 1.35e5 | 6041 |
| CG8237 | DRSC07119 | 2406 | 162 |
| Wdr37 (WD repeat domain 37) | DRSC14500 | 65249 | 3247 |
| CG1965 | DRSC12577 | 67297 | 3332 |
| Him (Holes in muscle) | DRSC19638 | 1.46e5 | 6116 |
| Cyp312a1 (Cytochrome P450 312a1) | DRSC11128 | 1.64e5 | 8374 |
| Cdc27 (Cell division cycle 27) | DRSC11112 | 70549 | 3674 |
| esg (escargot) | DRSC03530 | 1.01e5 | 3670 |
| lncRNA:CR42646 (long non-coding RNA:CR42646) | DRSC04759 | 1.37e5 | 5192 |
| CG31975 + ovm | DRSC00323 | 1.34e5 | 4784 |
| Rlb1 | DRSC16826 | 1.65e5 | 6401 |
| CG15362 | DRSC00392 | 1.74e5 | 5975 |
| Mst57Dc (Male-specific transcript 57Dc) | DRSC16745 | 1.23e5 | 6899 |
| milt (milton) | DRSC00965 | 1.28e5 | 4868 |
| milt (milton) | DRSC00966 | 1.09e5 | 5199 |
| milt (milton) | DRSC02281 | 94045 | 3969 |
| fj (four-jointed) | DRSC07619 | 1.62e5 | 5649 |
| CG31522 | DRSC12005 | 84295 | 3544 |
| dome (domeless) | DRSC19583 | 1.64e5 | 5480 |
| dbe (dribble) | DRSC00811 | 80591 | 4249 |
| CG13791 (retired record) | DRSC02295 | 1.47e5 | 4715 |

In a second layout: entries from further up.
target,dsRNA,"E2F firefly, rep 1","Renilla normaliser, rep 1"
Grx5 (Glutaredoxin 5),DRSC19593,2.11e5,10064
PIG-T (Phosphatidylinositol glycan anchor biosynthesis class T),DRSC17774,49822,4247
CG31683 + CG18858,DRSC02703,1.06e5,4150
Zip42C.2 (Zinc/iron regulated transporter-related protein 42C.2),DRSC05004,1.15e5,4216
ppk27 (pickpocket 27),DRSC08168,98935,4478
mael (maelstrom),DRSC11894,70168,3482
Gmppb (GDP-mannose pyrophosphorylase B),DRSC12169,82321,3249
Hex-C (Hexokinase C),DRSC07079,1.00e5,3940
CG14411,DRSC19597,1.58e5,6410
CG18635,DRSC06780,51344,3463
CG3955,DRSC06859,108,32
RpL29 (Ribosomal protein L29),DRSC04650,1.09e5,4455
mthl13 (methuselah-like 13),DRSC05238,1.29e5,5692
east (enhanced adult sensory threshold),DRSC18770,2.20e5 (active),6697

The results go on.
| target | dsRNA | E2F firefly, rep 1 | Renilla normaliser, rep 1 |
| --- | --- | --- | --- |
| CG10651 | DRSC02086 | 98149 | 4378 |
| mdlc (midlife crisis) | DRSC15690 | 68527 | 4445 |
| CG11562 | DRSC00316 | 1.59e5 | 5892 |
| CG3358 | DRSC04992 | 78634 | 3952 |
| CG14111 | DRSC10114 | 1.46e5 | 7164 |
| CG43672 | DRSC19452 | 1.58e5 | 6087 |
| CG43672 | DRSC20108 | 1.54e5 | 6317 |
| CG11110 | DRSC06037 | 92970 | 4233 |
| a10 (antennal protein 10) | DRSC11319 | 1.32e5 | 5569 |
| Tim8 | DRSC20291 | 1.12e5 | 5551 |
| TwdlF (TweedleF) | DRSC12225 | 76366 | 3276 |
| Axud1 (AXIN1 up-regulated 1) | DRSC00270 | 1.63e5 | 5131 |
| Arc42 (Activator-recruited cofactor subunit 42) | DRSC14340 | 1.34e5 | 6965 |
| Arc42 (Activator-recruited cofactor subunit 42) | DRSC15627 | 1.22e5 | 6902 |
| Npc2a (Niemann-Pick type C-2a) | DRSC00698 | 1.74e5 | 5685 |
| CG13692 | DRSC00361 | 1.72e5 | 6705 |
| RpS15Ab + RpS15Aa | DRSC06129 | 91829 | 5055 |
| RpS15Ab + RpS15Aa | DRSC19831 | 60384 | 5740 |
| CG7990 | DRSC19296 | 82716 | 2523 |
| CG7990 | DRSC20069 | 1.50e5 | 5268 |
| CG6885 | DRSC10740 | 1.34e5 | 7680 |
| asRNA:CR42547 + CG15674 | DRSC04264 | 1.07e5 | 3705 |
| Spase22-23 (Spase 22/23-subunit) | DRSC15857 | 1.16e5 | 6603 |
| l(2)k14505 (lethal (2) k14505) | DRSC03106 | 77949 | 3360 |
| Usp32 (Ubiquitin specific protease 32) | DRSC10979 | 1.21e5 | 6097 |
| Gat (GABA transporter) | DRSC17144 | 56429 | 4582 |
| CG8677 | DRSC03107 | 83412 | 3528 |
| GstE6 (Glutathione S transferase E6) | DRSC06676 | 1.61e5 | 5148 |
| Alp9 (Alkaline phosphatase 9) | DRSC10486 | 76409 | 3422 |
| NfI (Nuclear factor I) | DRSC17158 | 83340 | 4396 |
| CG4098 | DRSC10399 | 1.77e5 | 9085 |
| kar (karmoisin) | DRSC14496 | 73500 | 3452 |
| Cdc16 (Cell division cycle 16) | DRSC16920 | 99035 | 6144 |
